# Source: US8652799B2, “Method of detecting bioactive molecules in a fluid sample” (priority 2008, dated 2014)
# Read-outs that look alike come from different tables or passages of the source. At least one compound was matched to its structure with a doubt left. Some entries share one result that the patent states for a list of compounds.
# Assays:
# Chlorella vulgaris [1] = format: cell-based; settings: 30 minutes of incubation, in the presence of copper 0.25 ppm
# Protocol: A Chlorella vulgaris culture was prepared as described in Example 1 above. As indicated in Example 1, the algae were reactivated before testing under ambient light and at room temperature during 90 minutes.
# The formulation was then incubated under ambient light at 35° C. and at neutral pH with cadmium, copper, chromium, zinc, nickel, or lead, at indicated concentrations at incubation times varying between 15 minutes and 120 minutes. (FIGS. 9 to 12). The formulations were tested without additives or with 1 ppm cadmium, 0.1 ppm copper or 0.25 ppm copper as additive. The cellular concentration was 2.5×10^6 cells/mL (50 μL of algae within 2 mL of metal containing aqueous solution (i.e. distilled water)). Testing was performed in triplicates. The fluorescence emitted by each formulation was then measured with Luminotox™, a fluorometer that measures photosynthetic activity.
# Chlorella vulgaris [2] = test: Inhibition of fluorescence emission of Chlorella vulgaris incubated at 35° C.; format: cell-based; settings: 15 minutes
# Protocol: The present invention also concerns a method for ammonia nitrogen detection comprising changing algal cell permeability. This compound is detected at 100 ppm at neutral pH but the increment of pH up to 11 decreases the threshold to 1 ppm. Algal permeability can also be modified by increasing the incubation temperature of the assay. For example, fluorescence emission is inhibited in 15 minutes by copper ions, tetracycline and progesterone if Chlorella vulgaris is incubated at 35° C., while at room temperature the detection of these compounds in 15 minutes was possible when these compounds are present at higher concentrations. Chlorella vulgaris is a freshwater alga and is used for freshwater monitoring while Dunaliella tertiolecta is used of for marine water monitoring.
smiles,measurement,setting,value
"[Cd] [Cd, Cadmium]",Fluorescence inhibition,Chlorella vulgaris [1]; 1 ppm,above 10%
CN(C)[C@@H]1C(O)=C(C(N)=O)C(=O)[C@@]2(O)C(O)=C3C(=O)c4c(O)cccc4[C@@](C)(O)[C@H]3C[C@@H]12 [tetracycline],Fluorescence emission,Chlorella vulgaris [2],inhibited
[Zn] [zinc],Fluorescence inhibition,Chlorella vulgaris [1]; 0.5 ppm,above 10%
